Reference: US9309240B2, “Pyrazolopyridine compounds, compositions and methods of use” (F. HOFFMANN-LA ROCHE AG, priority 2010, dated 2016)
Counter-ions that a name gives are not always drawn. Some entries share one result that the patent states for a list of compounds.

biological target: T1, TYK2 kinase domain (Homo sapiens, UniProt P29597); test: JAK1, JAK2 and TYK2 Inhibition Assay Protocol (Example A): TYK2 kinase domain, Caliper LabChip peptide phosphorylation; format: biochemical
T1 construct: The activity of the isolated JAK1, JAK2 or TYK2 kinase domain was measured
T1 sequence (P29597 897-1176 limits assumed): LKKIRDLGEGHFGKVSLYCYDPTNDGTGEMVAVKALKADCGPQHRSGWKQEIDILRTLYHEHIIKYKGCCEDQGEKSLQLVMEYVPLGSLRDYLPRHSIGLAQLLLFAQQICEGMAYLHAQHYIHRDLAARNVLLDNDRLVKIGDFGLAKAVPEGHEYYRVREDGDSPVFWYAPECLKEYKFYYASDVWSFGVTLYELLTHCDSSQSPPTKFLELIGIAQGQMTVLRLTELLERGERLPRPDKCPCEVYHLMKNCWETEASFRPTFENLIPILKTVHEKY
Procedure: The activity of the isolated JAK1, JAK2 or TYK2 kinase domain was measured by monitoring phosphorylation of a peptide derived from JAK3 (Val-Ala-Leu-Val-Asp-Gly-Tyr-Phe-Arg-Leu-Thr-Thr) fluorescently labeled on the N-terminus with 5-carboxyfluorescein using the Caliper LabChip technology (Caliper Life Sciences, Hopkinton, Mass.). To determine the inhibition constants (Ki) of Examples 1-165, compounds were diluted serially in DMSO and added to 50 μL kinase reactions containing 1.5 nM JAK1, 0.2 nM purified JAK2 or 1 nM purified TYK2 enzyme, 100 mM Hepes pH7.2, 0.015% Brij-35, 1.5 uM peptide substrate, 25 uM ATP, 10 mM MgCl2, 4 mM DTT at a final DMSO concentration of 2%. Reactions were incubated at 22° C. in 384-well polypropylene microtiter plates for 30 minutes and then stopped by addition of 25 μL of an EDTA containing solution (100 mM Hepes pH 7.2, 0.015% Brij-35, 150 mM EDTA), resulting in a final EDTA concentration of 50 mM. After termination of the kinase reaction, the proportion of phosphorylated product was determined as a fraction of total peptide substrate using the Caliper LabChip 3000 according to the manufacturer's specifications. Ki values were then determined using the Morrison tight binding model. Morrison, J. F., Biochim. Biophys. Acta. 185:269-296 (1969); William, J. W. and Morrison, J. F., Meth. Enzymol., 63:437-467 (1979).

Ki, < 500 nM:
Nc1cc(Nc2ncc(F)c3nn(-c4c(Cl)cccc4Cl)cc23)ncn1 [Example 91, N-[2-(2,6-Dichlorophenyl)-7-fluoro-2H-pyrazolo[4,3-c]pyridin-4-yl]pyrimidine-4,6-diamine]
Cc1cc(Nc2cc(Cl)c(-n3cc4c(Nc5cc(C)ncn5)nccc4n3)c(C#N)c2)ncn1 [Example 158, 3-chloro-5-(6-methylpyrimidin-4-ylamino)-2-(4-(6-methylpyrimidin-4-ylamino)-2H-pyrazolo[4,3-c]pyridin-2-yl)benzonitrile]
CN(C)S(=O)(=O)c1ccc(Nc2nccc3nn(-c4ccc(N)cc4Cl)cc23)nc1 [Example 164, 6-(2-(4-amino-2-chlorophenyl)-2H-pyrazolo[4,3-c]pyridin-4-ylamino)-N,N-dimethylpyridine-3-sulfonamide]
Cc1cc(Nc2ncc(F)c3nn(-c4c(Cl)cc(N)cc4C#N)cc23)ncn1 [Example 100, 5-Amino-3-chloro-2-[7-fluoro-4-(6-methylpyrimidin-4-ylamino)-pyrazolo[4,3-c]pyridin-2-yl]benzonitrile]
Cc1nc(N)cc(Nc2nccc3nn(-c4c(Cl)cccc4Cl)cc23)n1 [Example 12, N-[2-(2,6-Dichlorophenyl)-2H-pyrazolo[4,3-c]pyridin-4-yl]-2-methyl-pyrimidine-4,6-diamine]
Cc1cc(Nc2ncc(F)c3nn(-c4c(F)cccc4C#N)cc23)nc(CO)n1 [Example 145, 3-Fluoro-2-[7-fluoro-4-(2-hydroxymethyl-6-methylpyrimidin-4-ylamino)-pyrazolo[4,3-c]pyridin-2-yl]-benzonitrile•HCl]
NC(=O)c1ccnc(Nc2nccc3nn(-c4c(Cl)cccc4Cl)cc23)c1 [Example 55, 2-[2-(2,6-Dichloro-phenyl)-2H-pyrazolo[4,3-c]pyridin-4-ylamino]-isonicotinamide]
N#Cc1cc(Nc2nccc3nn(-c4c(Cl)cccc4Cl)cc23)ncn1 [Example 54, 6-[2-(2,6-Dichlorophenyl)-2H-pyrazolo[4,3-c]pyridin-4-ylamino]pyrimidine-4-carbonitrile]
Nc1cc(Cl)c(-n2cc3c(NC(=O)C4CC4)ncc(F)c3n2)c(Cl)c1 [Example 130, N-[2-(4-amino-2,6-dichlorophenyl)-7-fluoro-2H-pyrazolo[4,3-c]pyridin-4-yl)cyclopropanecarboxamide]
N#Cc1cc(Cl)c(-n2cc3c(Nc4cc(CO)ncn4)nccc3n2)c(Cl)c1 [Example 20, 3,5-Dichloro-4-[4-(6-hydroxymethyl-pyrimidin-4-ylamino)-pyrazolo[4,3-c]pyridin-2-yl]-benzonitrile]
N#Cc1ccnc(Nc2nccc3nn(-c4c(F)cccc4Cl)cc23)c1 [Example 16, 6-[2-(2-Chloro-6-fluorophenyl)-2H-pyrazolo[4,3-c]pyridin-4-ylamino]isonicotinonitrile]
Clc1cccc(Cl)c1-n1cc2c(Nc3cc(C4CC4)ncn3)nccc2n1 [Example 94, (6-Cyclopropylpyrimidin-4-yl)-[2-(2,6-dichlorophenyl)-2H-pyrazolo[4,3-c]pyridin4-yl]-amine]
CN(C)Cc1cc(Nc2nccc3nn(-c4c(Cl)cc(C#N)cc4Cl)cc23)ncn1 [Example 72, 3,5-Dichloro-4-[4-(6-dimethyl-aminomethyl-pyrimidin-4-ylamino)pyrazolo[4,3-c]pyridine-2-yl]benzonitrile]
Cc1cc(Nc2ncc(Br)c3nn(-c4c(Cl)cccc4Cl)cc23)ncn1 [Example 38, [7-Bromo-2-(2,6-dichlorophenyl)-2H-pyrazolo[4,3-c]pyridin-4-yl]-(6-methylpyrimidin-4-yl)-amine]
N#Cc1cc(Cl)c(-n2cc3c(Nc4nccc(CF)n4)nccc3n2)c(Cl)c1 [Example 23, 3,5-Dichloro-4-[4-(4-fluoromethylpyrimidin-2-ylamino)pyrazolo[4,3-c]pyridin-2-yl]benzonitrile]
Fc1cc(Cl)c(-n2cc3c(Nc4ccc(Cl)cn4)nccc3n2)c(Cl)c1 [Example 76, (5-Chloropyridin-2-yl)-[2-(2,6-dichloro-4-fluorophenyl)-2H-pyrazolo[4,3-c]pyridine-4-yl]amine]
OCc1ccnc(Nc2nccc3nn(-c4c(Cl)cccc4Cl)cc23)c1 [Example 51, {2-[2-(2,6-Dichlorophenyl)-2H-pyrazolo[4,3-c]pyridin-4-ylamino]pyridin-4-yl}methanol]
N#Cc1ccnc(Nc2nccc3nn(-c4c(Cl)cccc4Cl)cc23)c1 [Example 45, 2-[2-(2,6-Dichlorophenyl)-2H-pyrazolo[4,3-c]pyridin-4-ylamino]isonicotinonitrile]
Cc1cc(Nc2nccc3nn(-c4c(Cl)cccc4Cl)cc23)nc(C)n1 [Example 2, [2-(2,6-Dichlorophenyl)-2H-pyrazolo[4,3-c]pyridine-4-yl]-(2,6-dimethylpyrimidin-4-yl)amine]
Nc1cc(Nc2nccc3nn(-c4c(Cl)cccc4C(=O)O)cc23)ncn1 [Example 155, 2-(4-(6-aminopyrimidin-4-ylamino)-2H-pyrazolo[4,3-c]pyridin-2-yl)-3-chlorobenzoic acid]
Cc1cc(Nc2nccc3nn(-c4c(F)cccc4Cl)cc23)ncn1 [Example 63, [2-(2-Chloro-6-fluorophenyl)-2H-pyrazolo[4,3-c]pyridine-4-yl]-(6-methylpyrimidin-4-yl)amine]
Cc1cc(Nc2ncc(F)c3nn(-c4c(F)cccc4Cl)cc23)nc(N)n1 [Example 147, N^4-[2-(2-Chloro-6-fluorophenyl)-7-fluoro-2H-pyrazolo[4,3-c]pyridin-4-yl]-6-methylpyrimidine-2,4-diamine•HCl]
Cc1cc(Nc2ncc(Br)c3nn(-c4c(Cl)cc(C#N)cc4Cl)cc23)ncn1 [Example 36, 4-[7-Bromo-4-(6-methyl-pyrimidin-4-ylamino)-pyrazolo[4,3-c]pyridin-2-yl]-3,5-dichlorobenzonitrile]
Cc1cc(Nc2ncc(C#N)c3nn(-c4c(Cl)cccc4Cl)cc23)ncn1 [Example 39, 2-(2,6-Dichlorophenyl)-4-(6-methylpyrimidin-4-ylamino)-2H-pyrazolo[4,3-c]pyridine-7-carbonitrile]
N#Cc1cccc(Cl)c1-n1cc2c(NC(=O)C3CC3)nccc2n1 [Example 161, N-(2-(2-chloro-6-cyanophenyl)-2H-pyrazolo[4,3-c]pyridin-4-yl)cyclopropane-carboxamide]
OCc1cc(Nc2nccc3nn(-c4c(F)cccc4Cl)cc23)ncn1 [Example 65, {6-[2-(2-Chloro-6-fluoro-phenyl)-2H-pyrazolo[4,3-c]pyridin-4-ylamino]-pyrimidin-4-yl}-methanol]
Cc1cc(Nc2nccc3nn(-c4c(Cl)cc(N)cc4C#N)cc23)ncn1 [Example 165, 5-amino-3-chloro-2-(4-(6-methylpyrimidin-4-ylamino)-2H-pyrazolo[4,3-c]pyridin-2-yl)benzonitrile]
Nc1cc(Nc2nccc3nn(-c4c(F)cccc4Cl)cc23)ncn1 [Example 17, N-[2-(2-Chloro-6-fluorophenyl)-2H-pyrazolo[4,3-c]pyridin-4-yl]-pyrimidine-4,6-diamine.HCl]
Cc1nc(N)cc(Nc2ncc(F)c3nn(-c4c(Cl)cccc4C#N)cc23)n1 [Example 97, 2-[4-(6-Amino-2-methylpyrimid-4-ylamino)-7-fluoropyrazolo[4,3-c]pyridin-2-yl]-3-chlorobenzonitrile hydrochloride salt]
OCc1cc(Nc2ncc(F)c3nn(-c4c(Cl)cccc4Cl)cc23)ncn1 [Example 79, {6-[2-(2,6-Dichloro-phenyl)-7-fluoro-2H-pyrazolo[4,3-c]pyridin-4-ylamino]-pyrimidin-4-yl}-methanol]
N#Cc1cccc(F)c1-n1cc2c(Nc3cc(N)ncn3)nccc2n1 [Example 156, 2-(4-(6-aminopyrimidin-4-ylamino)-2H-pyrazolo[4,3-c]pyridin-2-yl)-3-fluorobenzonitrile]
OCc1cc(Nc2ncc(Cl)c3nn(-c4c(Cl)cccc4Cl)cc23)ncn1 [Example 31, {6-[7-Chloro-2-(2,6-dichlorophenyl)-2H-pyrazolo[4,3-c]pyridin-4-ylamino]-pyrimidin-4-yl}-methanol]
Cc1cnc(Nc2cc(N)ncn2)c2cn(-c3c(Cl)cccc3Cl)nc12 [Example 102, N-[2-(2,6-Dichlorophenyl)-7-methyl-2H-pyrazolo[4,3-c]pyridin-4-yl]-pyrimidine-4,6-diamine]
